This passage reports binding results from PMC11496881.

Protein sequences, listed by entry. Tags and fused reporters are not part of them. Residues count along the entry.
UniProt P63165, residues 1-97: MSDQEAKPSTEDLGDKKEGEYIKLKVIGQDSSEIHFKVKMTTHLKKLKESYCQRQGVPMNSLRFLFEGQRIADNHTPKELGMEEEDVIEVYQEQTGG
UniProt Q9Z172, residues 1-92: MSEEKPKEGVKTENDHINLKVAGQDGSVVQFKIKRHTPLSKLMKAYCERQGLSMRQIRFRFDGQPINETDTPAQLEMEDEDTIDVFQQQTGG

The target of assay [1] is T1, Liver kinase B1 (LKB1), HKC-8 cells (human (endogenous in HKC-8)) (UniProt Q15831).
T1 sequence: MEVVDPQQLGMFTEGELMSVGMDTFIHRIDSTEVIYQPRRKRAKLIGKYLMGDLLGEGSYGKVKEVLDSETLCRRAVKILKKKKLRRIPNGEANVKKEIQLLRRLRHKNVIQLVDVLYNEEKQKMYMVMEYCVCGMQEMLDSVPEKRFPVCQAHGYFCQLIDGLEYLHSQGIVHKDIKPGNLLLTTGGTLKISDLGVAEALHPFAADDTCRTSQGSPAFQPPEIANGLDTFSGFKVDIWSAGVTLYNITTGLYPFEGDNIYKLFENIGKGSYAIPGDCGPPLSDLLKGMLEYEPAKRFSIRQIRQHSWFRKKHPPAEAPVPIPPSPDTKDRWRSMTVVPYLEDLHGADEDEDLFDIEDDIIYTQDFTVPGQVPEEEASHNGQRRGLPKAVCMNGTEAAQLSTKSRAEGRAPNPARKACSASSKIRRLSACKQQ
The assay is described as follows: co-IP; lysates of HKC-8 cells transfected with pcDNA3 or pDel-beta-catenin for 24 h, precipitated overnight at 4 °C with anti-LKB1 and protein A/G plus agarose, blotted with anti-Sumo1 or anti-Sumo2/3.

Assay [2] has as its target T2, Liver kinase B1 (LKB1), mouse kidney (mouse (endogenous in kidney tissue)) (UniProt Q9WTK7).
T2 sequence: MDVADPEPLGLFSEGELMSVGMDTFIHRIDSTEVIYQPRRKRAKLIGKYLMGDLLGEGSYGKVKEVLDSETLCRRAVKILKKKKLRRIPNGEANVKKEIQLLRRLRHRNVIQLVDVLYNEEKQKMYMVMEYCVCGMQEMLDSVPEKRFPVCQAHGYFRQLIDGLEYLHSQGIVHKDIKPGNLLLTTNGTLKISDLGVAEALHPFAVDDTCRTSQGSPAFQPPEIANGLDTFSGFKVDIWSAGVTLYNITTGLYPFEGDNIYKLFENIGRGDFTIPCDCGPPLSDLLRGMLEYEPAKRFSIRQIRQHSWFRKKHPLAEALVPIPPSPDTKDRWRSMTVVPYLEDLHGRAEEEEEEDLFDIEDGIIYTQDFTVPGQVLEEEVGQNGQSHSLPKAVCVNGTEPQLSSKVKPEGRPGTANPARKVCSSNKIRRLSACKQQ
The assay is described as follows: co-IP; mouse kidney homogenates (sham and UIRI; UUO wild type and Ksp-beta-catenin-/-) precipitated overnight at 4 °C with anti-LKB1 and protein A/G plus agarose, washed three times with lysis buffer, blotted with anti-Sumo1, anti-Sumo2/3 or anti-Sumo3.

These are yes or no findings as the source states them, for the method shown. Binding seen in cells or lysates may run through a third protein. Some entries that bind do so weakly or less than the wild type.

Regarding “Sumo1, HKC-8 cells (from UniProt P63165 1-97)”, the binding entry in assay [1] is reported as “binds”.

Regarding “Sumo3, mouse kidney (from UniProt Q9Z172 1-92)”, in assay [2], the binding entry is “binds”.
